Laboratory results: PubChem BioAssay AID504774 (Drosophila RNAi Screening Center, 2011)
Purpose: 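Fly genes whose loss alters survival after alkylation damage to DNA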 (primary screen). System: Drosophila Kc167 cells. Reagent: long dsRNA against Drosophila genes, about 0.25 µg dsRNA per well. Timing: about 6 days: 3 days knock-down, then 3 days with or without MMS. Treatment: methyl methanesulphonate 0.004% (w/v) for 3 days after knock-down. Read-out: 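Viability in wells given MMS, read as ATP luminescence, normalised by quantiles plate by plate and averaged across replicates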. Reading the numbers: mean viability with MMS: higher = more surviving cells after MMS.
The deposit covers about 23,000 reagents; this is a random part of those that have a named target and a result. 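Values are quantile-normalised luminescence on an arbitrary scale; higher means more cells surviving MMS.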 Names joined by + are all predicted targets of the reagent. Further read-outs or replicates are left out here.

gene	DRSC id	mean viability with MMS
CG5641	DRSC15852	3.42e6
CG43394	DRSC01013	3.26e6
nmd (no mitochondrial derivative)	DRSC02856	3.55e6
pinta	DRSC14698	3.49e6
CG17047	DRSC06648	3.87e6
CG44153	DRSC02228	3.71e6
CG44153	DRSC02229	3.37e6
CG44153	DRSC02902	3.42e6
CG44153	DRSC02903	3.35e6
mei-217 + mei-218	DRSC20349	3.59e6
Rab9Fb (Rab at 9Fb)	DRSC19854	3.87e6
alpha-Est8 (alpha-Esterase-8)	DRSC12620	3.57e6
tral (trailer hitch)	DRSC09779	3.44e6
eIF2D (eukaryotic translation initiation factor 2D)	DRSC13916	3.59e6
Tengl3 (Testis EndoG-Like 3)	DRSC22288	3.63e6
CG8939	DRSC20127	3.39e6
ImpE2 (Ecdysone-inducible gene E2)	DRSC08665	3.52e6
GrlHz (Gustatory receptor-like Holozoa)	DRSC04424	3.80e6
CheB53a (Chemosensory protein B 53a)	DRSC06625	3.71e6
Prp40 (pre-mRNA processing factor 40)	DRSC00612	3.31e6
Ih (I[[h]] channel)	DRSC07445	3.60e6
CG34338	DRSC17535	3.49e6
run (runt)	DRSC20584	3.73e6
run (runt)	DRSC21515	3.64e6
BthD (BthD selenoprotein)	DRSC19395	3.58e6
AlkB	DRSC19115	3.65e6
CG6106	DRSC19971	3.51e6
CG18766	DRSC15936	3.47e6
Odc2 (Ornithine decarboxylase 2)	DRSC07483	3.57e6
Sgs8 (Salivary gland secretion 8)	DRSC11282	3.47e6
CG31441	DRSC15723	3.60e6
ACXA (Adenylyl cyclase X A)	DRSC00844	3.67e6
GstD8 (Glutathione S transferase D8)	DRSC16689	3.68e6
l(3)72Dn (lethal (3) 72Dn)	DRSC10468	3.46e6
CG5386	DRSC15788	3.15e6
Ras85D (Ras oncogene at 85D)	DRSC16814	3.40e6
CG15145	DRSC02446	3.48e6
Cap-D3 + tomb	DRSC02347	3.57e6
CG1789	DRSC18140	3.53e6
CG12057	DRSC17797	3.64e6
GatC + PolG2	DRSC03312	3.52e6
Mst98Cb (Male-specific RNA 98Cb)	DRSC16750	3.66e6
Mst98Cb (Male-specific RNA 98Cb)	DRSC22495	3.58e6
CG9436	DRSC05005	3.73e6
CG11722	DRSC14358	3.48e6
Tre1 (Trapped in endoderm 1)	DRSC18726	3.60e6
nmdyn-D6	DRSC20355	3.62e6
Whamy (WHAMM and JMY related)	DRSC14574	3.59e6
CG15021	DRSC08475	3.52e6
aqrs (aquarius)	DRSC14724	3.62e6
Rbcn-3B (Rabconnectin-3B)	DRSC18574	3.42e6
CG2321	DRSC15439	3.65e6
TfIIA-L (Transcription factor IIA L)	DRSC16882	3.40e6
Cpr (Cytochrome P450 reductase)	DRSC03293	3.55e6
CG33286	DRSC11691	3.56e6
Synd (Syndapin)	DRSC15116	3.56e6
cup	DRSC03516	3.29e6
CG3085	DRSC04335	3.70e6
fz (frizzled)	DRSC11348	3.54e6
CG33502 + CG32857 + CG32500	DRSC20817	2.21e6
CG33502 + CG32857 + CG32500	DRSC21038	3.54e6
Dp1 (Dodeca-satellite-binding protein 1)	DRSC07403	3.51e6
Ilp2 (Insulin-like peptide 2)	DRSC10968	3.43e6
CG31098	DRSC14259	3.46e6
CG34229	DRSC06316	3.54e6
CG34008	DRSC13428	3.57e6
CG7251	DRSC03039	3.65e6
roq (roquin)	DRSC10227	3.90e6

A portion from the list above, for reference:
gene	DRSC id	mean viability with MMS
CG8939	DRSC20127	3.39e6
ImpE2 (Ecdysone-inducible gene E2)	DRSC08665	3.52e6
GrlHz (Gustatory receptor-like Holozoa)	DRSC04424	3.80e6
CheB53a (Chemosensory protein B 53a)	DRSC06625	3.71e6
Prp40 (pre-mRNA processing factor 40)	DRSC00612	3.31e6
Ih (I[[h]] channel)	DRSC07445	3.60e6
CG34338	DRSC17535	3.49e6
run (runt)	DRSC20584	3.73e6
run (runt)	DRSC21515	3.64e6
